≈ marks a conversion by molar mass, not a printed value.
Tests used:
Escherichia coli = assay: Antibacterial activity against hyperpermeable Escherichia coli D22 harboring LpxC mutant after 20 to 22 hrs
[1] = Thermodynamic aqueous solubility of the compound at pH 7.4; conditions: buffer
[2] = Apparent permeability across human Caco2 cells; conditions: Caco-2
[3] = target: Voltage-gated inwardly rectifying potassium channel KCNH2 (Homo sapiens, UniProt Q12809); assay: Inhibition of human ERG transfected in CHO cells by patch clamp method

Chains of the proteins cited; added tags and fusions are not shown. Lines headed by an entry give the natural chain unless they say otherwise; changes in a name come on top.
UniProt Q12809: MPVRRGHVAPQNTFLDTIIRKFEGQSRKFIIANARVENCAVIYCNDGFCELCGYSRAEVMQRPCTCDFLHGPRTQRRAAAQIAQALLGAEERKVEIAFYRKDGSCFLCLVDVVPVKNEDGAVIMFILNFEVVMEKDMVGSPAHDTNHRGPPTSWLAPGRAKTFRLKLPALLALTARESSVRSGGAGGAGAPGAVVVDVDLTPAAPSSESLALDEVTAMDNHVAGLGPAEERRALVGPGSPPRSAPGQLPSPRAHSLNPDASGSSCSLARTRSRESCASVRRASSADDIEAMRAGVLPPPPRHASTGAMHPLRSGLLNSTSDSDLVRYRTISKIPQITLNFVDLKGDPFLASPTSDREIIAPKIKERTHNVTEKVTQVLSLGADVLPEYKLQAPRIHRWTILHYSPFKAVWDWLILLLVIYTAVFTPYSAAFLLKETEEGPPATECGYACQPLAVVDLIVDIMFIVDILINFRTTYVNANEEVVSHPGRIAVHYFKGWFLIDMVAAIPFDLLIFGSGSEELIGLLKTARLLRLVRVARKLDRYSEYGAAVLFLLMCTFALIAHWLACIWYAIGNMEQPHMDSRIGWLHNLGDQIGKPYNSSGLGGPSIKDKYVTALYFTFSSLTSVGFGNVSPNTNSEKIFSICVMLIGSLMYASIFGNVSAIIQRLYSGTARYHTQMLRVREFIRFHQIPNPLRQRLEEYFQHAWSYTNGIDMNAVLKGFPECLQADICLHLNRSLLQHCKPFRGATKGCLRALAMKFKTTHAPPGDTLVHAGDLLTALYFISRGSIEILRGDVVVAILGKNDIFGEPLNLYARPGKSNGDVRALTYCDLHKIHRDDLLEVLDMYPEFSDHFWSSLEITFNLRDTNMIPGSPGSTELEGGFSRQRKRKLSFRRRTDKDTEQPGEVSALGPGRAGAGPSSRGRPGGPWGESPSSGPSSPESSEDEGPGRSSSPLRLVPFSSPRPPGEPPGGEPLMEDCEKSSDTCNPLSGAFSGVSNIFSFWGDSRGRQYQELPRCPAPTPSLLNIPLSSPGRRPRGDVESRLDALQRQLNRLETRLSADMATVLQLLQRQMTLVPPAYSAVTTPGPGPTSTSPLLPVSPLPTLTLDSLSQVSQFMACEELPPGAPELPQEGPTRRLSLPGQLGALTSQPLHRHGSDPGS

For O=c1c2nccn2c2cc(F)c(-c3ccncc3)cc2n1C1CC1, which MIC (Escherichia coli) is on record?
The MIC was 8 µg/mL (≈ 25 µM).

And the solubility thermodynamic [1]?
Its solubility thermodynamic is 10 µg/mL (≈ 31.2 µM).

What about the Papp [2] of the same compound?
Its Papp is 21.6 ×10⁻⁶ cm/s.

And the IC50 [3]?
The IC50 was greater than 30 µM.

Source: ChEMBL document CHEMBL4177750, “Imidazopyrazinones (IPYs): Non-Quinolone Bacterial Topoisomerase Inhibitors Showing Partial Cross-Resistance with Quinolones” (J Med Chem, 2018)
